The values that follow come from PMC4506129.

The target in test [1] is T1, recombinant Bet v 1a (birch), P15494.
T1 chain: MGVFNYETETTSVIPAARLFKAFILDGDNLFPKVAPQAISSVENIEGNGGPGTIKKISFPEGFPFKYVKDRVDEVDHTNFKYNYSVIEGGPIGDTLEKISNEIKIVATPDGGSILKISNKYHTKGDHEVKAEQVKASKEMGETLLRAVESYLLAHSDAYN
Briefly: 15N NMR spin relaxation; 15N spin relaxation rates of rBet v 1a in NMR; data in S1 File; both purified. Particulars: remark: other sources report otherwise.

Test [2] shares this target. Briefly: dynamic light scattering; 10 μM protein in 10 mM KPi, pH 7.4, 25°C; hydrodynamic radius (RH) from the diffusion coefficient; both purified. The settings on record: remark: other sources report otherwise.
Test [3] deals with recombinant Bet v 1a S112P/R145P (birch) (UniProt P15494). The description is as above.

Positions count from the first letter of the chain named. Numbers in names are those of the source. These are yes or no findings as the source states them, for the method shown.

B1: recombinant Bet v 1a, P15494 1-160 (protein)
chain: T1 chain
As to B1, the binding result was “no binding” in test [1] and “no binding (tested: 10 μM)” in test [2].

B2: recombinant Bet v 1a S112P/R145P (protein, UniProt P15494 1-160)
chain: T1 chain with S113P, R146P
Take B2: in test [3], the binding entry is reported as “no binding (tested: 10 μM)”.
